According to patent US7175993B2 (Saladax Biomedical, Inc., priority 2004, dated 2007):
Some results were stated once for a whole list of compounds, not compound by compound. For at least one compound, name, drawing or mass did not settle the structure.

How the values were obtained:
[1] = tested on: taxol polyclonal antibodies; assay: Indirect competitive microtiter plate immunoassay (ELISA), polyclonal antibodies to taxol (pool of antisera); format: binding, mice; details: polyclonal antibody pool
Method: The assay was performed by incubating 50 μL of the analytes to be measured with 50 μL of antibody (produced in example 4) diluted to a titer determined in example 8a. […] Following this incubation the wells of the plate were washed three times with 0.02 M TRIS, 0.9% NaCl, 0.5% Tween-80 and 0.001% Thimerosal, pH 7.8 to remove any material that was not bound. […] To develop a measurable color in the wells, washing was followed by the addition of 100 μL of TMB (TMB Liquid Substrate, Sigma), a substrate for HRP, to develop color in a 10 minute incubation with shaking at room temperature. Following the incubation for color development, 50 μL of stop solution (1.5% sodium fluoride in di H2O) was added to each well to stop the color development and after 10 seconds of shaking the absorbance was determined at 650 nm (Molecular Devices Plate Reader). The amount of antibody in a well was proportional to the absorbance measured and inversely proportional to the amount of taxol in the sample. The absorbance of the color in the wells containing analyte is compared to that with no analyte and a standard curve is generated. […] The cross-reactivity with 6-α-hydroxypaclitaxel was less than 60%. […]
The assay was performed by incubating 50 μL of the analytes to be measured with 50 μL of antibody (produced in example 4) diluted to a titer determined in example 8a. […] Following this incubation the wells of the plate were washed three times with 0.02 M TRIS, 0.9% NaCl, 0.5% Tween-80 and 0.001% Thimerosal, pH 7.8 to remove any material that was not bound. […] This secondary antibody was capable of binding specifically with murine immunoglobulins producing a colored product when incubated with a substrate. […] To develop a measurable color in the wells, washing was followed by the addition of 100 μL of TMB (TMB Liquid Substrate, Sigma), a substrate for HRP, to develop color in a 10 minute incubation with shaking at room temperature. Following the incubation for color development, 50 μL of stop solution (1.5% sodium fluoride in di H2O) was added to each well to stop the color development and after 10 seconds of shaking the absorbance was determined at 650 nm (Molecular Devices Plate Reader). The amount of antibody in a well was proportional to the absorbance measured and inversely proportional to the amount of taxol in the sample. The absorbance of the color in the wells containing analyte is compared to that with no analyte and a standard curve is generated. […]

[2] = tested on: taxol monoclonal antibodies; assay: Indirect competitive microtiter plate immunoassay (ELISA), selected monoclonal antibodies; format: binding, mice
[3] = selected monoclonal antibodies, plate sensitized with Taxol Derivative 8 (example 9b)
[4] = two monoclonal antibodies, plate sensitized with Taxol Derivative 5 (example 9a)

SMILES	Cross-reactivity relative to taxol ([1]; microtiter plate sensitized with Taxol Derivative 5 (example 9a), listed as 3′-p-hydroxypaclitaxel)	Cross-reactivity relative to taxol ([1]; microtiter plate sensitized with Taxol Derivative 8 (example 9b), listed as 3′-p-hydroxypaclitaxel)	percent cross-reactivities relative to taxol [2, 3]	percent cross-reactivities relative to taxol [2, 4]	Cross-reactivity relative to taxol ([1]; microtiter plate sensitized with Taxol Derivative 8 (example 9b), listed as 6-α-hydroxypaclitaxel)	Cross-reactivity relative to taxol ([1]; microtiter plate sensitized with Taxol Derivative 8 (example 9b), listed as taxotere)
CC(=O)O[C@H]1C(=O)[C@@]2(C)[C@H]([C@H](OC(=O)c3ccccc3)[C@]3(O)C[C@H](OC(=O)[C@H](O)[C@@H](NC(=O)c4ccccc4)c4ccc(O)cc4)C(C)=C1C3(C)C)[C@]1(OC(C)=O)CO[C@@H]1C[C@@H]2O [3′-p-Hydroxypaclitaxel, 3′-p-hydroxypaclitaxel]	less than 10%	less than 2%	less than 9%	less than 6%		
CC(=O)O[C@H]1C(=O)[C@@]2(C)[C@H]([C@H](OC(=O)c3ccccc3)[C@]3(O)C[C@H](OC(=O)[C@H](O)[C@@H](NC(=O)c4ccccc4)c4ccccc4)C(C)=C1C3(C)C)[C@]1(OC(C)=O)CO[C@@H]1[C@@H](O)[C@@H]2O [6-α-Hydroxypaclitaxel, 6-α-hydroxypaclitaxel]			less than 9%	less than 6%	less than 2%	
CC(=O)O[C@@]12CO[C@@H]1C[C@H](O)[C@@]1(C)C(=O)[C@H](O)C3=C(C)[C@@H](OC(=O)[C@H](O)[C@@H](NC(=O)OC(C)(C)C)c4ccccc4)C[C@@](O)([C@@H](OC(=O)c4ccccc4)[C@H]21)C3(C)C [Docetaxel]						less than 2%
